Measured data: PubChem BioAssay AID1259308 (NCATS, 2017)

Test: 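Candidate targets for better recombinant protein yield in mammalian cells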 (primary screen)
System: human HEK293 embryonic kidney cells stably expressing firefly luciferase (HEK-CMV-Luc2-Hygro)
Reagents: single siRNA against human genes, 0.8 pmol siRNA per well
Time to read-out: 72 h
Measured: 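Reporter luminescence and viable-cell signal on separate replicate plates, given as percent of non-targeting control and median/MAD z-scores, plus per-cell luciferase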
Direction: total luciferase, z-score: higher = more reporter protein produced
Active means: 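Active when the median/MAD z-score for overall luciferase is greater than 3; a gene was taken forward for validation with new siRNAs if at least two of its three siRNAs passed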
Meaning of the calls: active = raised luciferase; inactive = no rise
Here is one part, drawn at random, of about 59,000 reagents. About 1,510 of them (2.6%) were called active. 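Calls use total luciferase alone and ignore viability, so some active siRNAs may act by altering cell number.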 The numbers tell different reagents against one gene apart. Further read-outs or replicates are left out here.

no.	gene knocked down	reagent no.	total luciferase, z-score	activity call
1	CPE	1	-0.456	inactive
2	CPE	2	0.114	inactive
3	CPE	3	0.654	inactive
4	CCDC122	1	-0.23	inactive
5	CCDC122	2	1.45	inactive
6	CCDC122	3	-0.766	inactive
7	SLC35G1	1	1.67	inactive
8	SLC35G1	2	0.538	inactive
9	SLC35G1	3	0.31	inactive
10	TTC27	1	-0.132	inactive
11	TTC27	2	0.449	inactive
12	TTC27	3	-0.0935	inactive
13	KRTAP13-1	1	-0.282	inactive
14	KRTAP13-1	2	2.07	inactive
15	KRTAP13-1	3	-0.0684	inactive
16	ZNF596	1	1.36	inactive
17	ZNF596	2	4.37	active
18	ZNF596	3	1.68	inactive
19	RPL19	1	-2.55	inactive
20	RPL19	2	-2.83	inactive
21	RPL19	3	-1.93	inactive
22	GATD1	1	1.58	inactive
23	GATD1	2	1.35	inactive
24	GATD1	3	-1.17	inactive
25	NHLRC2	1	-1.29	inactive
26	NHLRC2	2	2.49	inactive
27	NHLRC2	3	0.0167	inactive
28	REXO1L8P	1	0.295	inactive
29	REXO1L8P	2	-0.144	inactive
30	REXO1L8P	3	-1.42	inactive

Active calls (from the list above):
gene knocked down	reagent no.	total luciferase, z-score	activity call
ZNF596	2	4.37	active

The listing continues.
no.	gene knocked down	reagent no.	total luciferase, z-score	activity call
31	OR2B6	1	1.25	inactive
32	OR2B6	2	-0.796	inactive
33	OR2B6	3	-0.952	inactive
34	FXYD3	1	1.96	inactive
35	FXYD3	2	1.01	inactive
36	FXYD3	3	1.72	inactive
37	COX7B	1	-1.43	inactive
38	COX7B	2	-2.44	inactive
39	COX7B	3	-0.714	inactive
40	SLC34A2	1	-0.543	inactive
41	SLC34A2	2	1.52	inactive
42	SLC34A2	3	-0.532	inactive
43	RAF1	1	-0.2	inactive
44	RAF1	2	-0.766	inactive
45	RAF1	3	-0.418	inactive
46	RP1	1	-1.41	inactive
47	RP1	2	0.32	inactive
48	RP1	3	-0.993	inactive
49	IGDCC4	1	-2.17	inactive
50	IGDCC4	2	-0.686	inactive
51	IGDCC4	3	-2.76	inactive
52	BTRC	1	-0.0406	inactive
53	BTRC	2	-0.431	inactive
54	BTRC	3	0.748	inactive
55	BPI	1	-0.464	inactive
56	BPI	2	0.521	inactive
57	BPI	3	-0.872	inactive
58	TPGS2	1	-0.361	inactive
59	TPGS2	2	-1.11	inactive
60	TPGS2	3	0.36	inactive
61	ABCA1	1	-0.18	inactive
62	ABCA1	2	-1.02	inactive
63	ABCA1	3	0.409	inactive
64	CUL4A	1	-0.701	inactive
65	CUL4A	2	0.822	inactive
66	CUL4A	3	-0.482	inactive
67	MED31	1	0.304	inactive
68	MED31	2	-1.53	inactive
69	MED31	3	-1.28	inactive
70	RFTN1	1	0.386	inactive
71	RFTN1	2	1.03	inactive
72	RFTN1	3	1.64	inactive
73	FHIP2B	1	-1.36	inactive
74	FHIP2B	2	0.452	inactive
75	FHIP2B	3	0.0985	inactive
